PubChem BioAssay AID602196 | INSERM | 2012

Screen: 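Genes whose knock-down alters cisplatin killing of lung cancer cells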
Cells: human A549 lung cancer cells
Knock-down reagent: siRNA pair against human genes
Time to read-out: 48 h transfection before cisplatin; time from cisplatin to read-out not stated
Conditions: cisplatin at a dose killing half of control-siRNA cells; exact dose and duration not given
Measured: 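Shift in cisplatin death relative to control siRNA, from -50 (all cells die) to +50 (no cells die); siRNAs harmful on their own scored 0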
Scale: two-siRNA summed score (-2 to +2): higher = both siRNAs protect from cisplatin killing; -2 means both sensitise; mean protection from cisplatin (shift in death) and protection from cisplatin (shift in death), siRNA C and protection from cisplatin (shift in death), siRNA D: higher = protection from cisplatin killing
Active means: 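Each siRNA scores 0 if harmful alone by LDH or WST-1, otherwise +1 if it reduces and -1 if it increases cisplatin killing; a gene is active when both siRNAs agree (sum +2 or -2)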
Meaning of the calls: active = both siRNAs shift cisplatin killing the same way; inactive = no consistent shift, or siRNA harmful alone
This is a random part of about 23,000 reagents tested. In the full data, 455 (2%) are marked active. 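Active includes both protection and sensitisation; some change values fall well beyond the stated -50 to +50 range.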 Unmarked entries are inactive. The record does not give: the amount of reagent.

Target gene | two-siRNA summed score (-2 to +2) | mean protection from cisplatin (shift in death) (%) | protection from cisplatin (shift in death), siRNA C (%) | protection from cisplatin (shift in death), siRNA D (%)
PITX1 | 0 | 6.6 | 3.2 | 10
CCDC102A | 0 | -4.3 | 11.3 | -19.8
MRPL46 | 1 | 4.3 | 19.1 | -10.4
LOC402072 | 0 | -1.4 | 0.5 | -3.3
TMEM52B | 0 | 8.7 | 5.3 | 12.2
STRAP | -1 | -27.1 | -23.5 | -30.7
BAG6 | 1 | 13.7 | 12.2 | 15.3
STK17A | 1 | 14.1 | 19.9 | 8.4
TMOD1 | 0 | 0.2 | -6.3 | 6.6
LOC389816 | 0 | 1.8 | -15.6 | 19.2
LILRA3 | 0 | 12.8 | 8.2 | 17.4
PDE3A | 0 | 4.5 | 10.1 | -1.1
PKM | 0 | 1.8 | -3.6 | 7.2
LOC390020 | 0 | 6 | 6.9 | 5
SCUBE2 | -1 | -8 | 3.7 | -19.8
SSH3 | 0 | -2.9 | -4.9 | -0.9
SWAP70 | 0 | 4.5 | 11.6 | -2.6
PIGV | -1 | -14.4 | -2.7 | -26
TOX4 | 0 | 2.2 | -3.5 | 7.8
LOC441128 | 0 | 4 | 20.7 | -12.6
SSNA1 | -1 | -9.1 | 0.4 | -18.6
CFTR | -1 | -14.1 | -20.2 | -7.9
LOC440419 | 0 | 10.5 | 13.5 | 7.4
LOC387654 | 1 | 14.4 | 18.7 | 10.1
FGFBP3 | 0 | -2.3 | -13.3 | 8.8
LPAR3 | 0 | -1.4 | 17.3 | -20
LOC400861 | 0 | 1.3 | -7.2 | 9.8
TNFRSF6B | -1 | -10.1 | -5.2 | -15.1
PRDX6 | 0 | 0.2 | 3 | -2.5
HLX | 1 | 8.4 | 8.1 | 8.7
LRRC37B | 0 | 0 | 1.6 | -1.6
CAPS2 | 0 | 4.6 | -12.2 | 21.4
SULT1C4 | 0 | 6.1 | 9.7 | 2.5
RFPL2 | -2 (active) | -20.5 | -25.7 | -15.3
TAT | 0 | -0.1 | 3.2 | -3.5
NOC3L | 0 | 5.5 | -10.7 | 21.7
PLEKHH3 | 0 | 6 | 13.2 | -1.1
SUMO1 | 0 | -9.9 | -27.7 | 7.8
LOC442658 | 0 | 7.8 | 14.7 | 1
SLC35D1 | 0 | 20.2 | 9.4 | 31.1
LOC399919 | 0 | 11 | 8.1 | 13.9
CEP55 | 0 | 5.1 | 1.1 | 9.2
ANTXR1 | 0 | 2 | -15.1 | 19
KRTAP13-2 | 0 | 1.5 | 0.8 | 2.2
PLPPR1 | 1 | 17.6 | 22.6 | 12.5
SLC75A1 | 0 | 1.5 | -4.8 | 7.7
LOC401005 | 0 | 6.6 | 7 | 6.1
SPMIP10 | 0 | -2.3 | -3.2 | -1.4
LOC401135 | 0 | 5.6 | 18.1 | -6.9
LOC402663 | 1 | 14.4 | 4.3 | 24.5
ZNF607 | 0 | 6 | 9.6 | 2.4
PA2G4 | 0 | 7.2 | 1.8 | 12.7
COL6A1 | 0 | 4.8 | -0.4 | 10.1
TRIM51EP | 0 | 5.1 | 3.3 | 6.8
LOC253662 | 0 | 14.5 | 21.4 | 7.6
CAMKMT | 0 | 7.8 | 4.7 | 10.9
MGC72083 | 1 | 2 | -14.1 | 18.2
